These are yes or no findings as the source states them, for the method shown. For some assays here: Binding seen in cells or lysates may run through a third protein. Some results given as binding are weak or reduced against the parent protein; the word gives no strength.

By UniProt entry, the sequences of proteins in these tests, tags left out. Where a name states a change or a piece, a line headed by the entry shows the natural chain unless it says otherwise. Residues count along the entry.
UniProt Q9N0T5, residues 2-217: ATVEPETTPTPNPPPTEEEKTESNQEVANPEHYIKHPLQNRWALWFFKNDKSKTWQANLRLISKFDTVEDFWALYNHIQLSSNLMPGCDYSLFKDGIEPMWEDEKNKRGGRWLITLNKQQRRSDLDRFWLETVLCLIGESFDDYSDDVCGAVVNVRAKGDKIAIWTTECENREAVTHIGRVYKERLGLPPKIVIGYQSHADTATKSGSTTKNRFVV
UniProt P05556: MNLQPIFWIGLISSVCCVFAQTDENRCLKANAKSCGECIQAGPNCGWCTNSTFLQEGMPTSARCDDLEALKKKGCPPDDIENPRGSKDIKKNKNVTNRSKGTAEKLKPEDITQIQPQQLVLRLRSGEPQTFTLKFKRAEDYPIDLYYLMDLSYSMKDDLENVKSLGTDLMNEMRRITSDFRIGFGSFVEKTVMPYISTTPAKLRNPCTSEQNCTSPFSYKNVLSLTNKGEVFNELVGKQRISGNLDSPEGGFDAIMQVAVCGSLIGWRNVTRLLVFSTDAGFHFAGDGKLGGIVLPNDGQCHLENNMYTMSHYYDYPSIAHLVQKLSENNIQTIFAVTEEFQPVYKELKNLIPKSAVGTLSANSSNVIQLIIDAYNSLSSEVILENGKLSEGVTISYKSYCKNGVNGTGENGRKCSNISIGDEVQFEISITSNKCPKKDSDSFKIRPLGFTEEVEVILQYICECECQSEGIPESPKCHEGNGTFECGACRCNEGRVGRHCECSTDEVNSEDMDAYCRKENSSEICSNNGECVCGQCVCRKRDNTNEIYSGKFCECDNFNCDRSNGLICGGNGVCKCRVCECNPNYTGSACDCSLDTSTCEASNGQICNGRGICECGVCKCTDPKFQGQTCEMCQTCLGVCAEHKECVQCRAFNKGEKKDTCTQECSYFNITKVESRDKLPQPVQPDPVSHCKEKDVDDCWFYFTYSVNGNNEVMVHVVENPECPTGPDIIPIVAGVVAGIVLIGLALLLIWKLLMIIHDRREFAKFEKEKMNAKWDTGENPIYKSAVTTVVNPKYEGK
UniProt Q0P5A7, residues 2-118: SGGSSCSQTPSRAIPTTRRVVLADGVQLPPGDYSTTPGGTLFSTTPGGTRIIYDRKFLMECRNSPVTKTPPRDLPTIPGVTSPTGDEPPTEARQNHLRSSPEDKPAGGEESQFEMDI
UniProt Q01955: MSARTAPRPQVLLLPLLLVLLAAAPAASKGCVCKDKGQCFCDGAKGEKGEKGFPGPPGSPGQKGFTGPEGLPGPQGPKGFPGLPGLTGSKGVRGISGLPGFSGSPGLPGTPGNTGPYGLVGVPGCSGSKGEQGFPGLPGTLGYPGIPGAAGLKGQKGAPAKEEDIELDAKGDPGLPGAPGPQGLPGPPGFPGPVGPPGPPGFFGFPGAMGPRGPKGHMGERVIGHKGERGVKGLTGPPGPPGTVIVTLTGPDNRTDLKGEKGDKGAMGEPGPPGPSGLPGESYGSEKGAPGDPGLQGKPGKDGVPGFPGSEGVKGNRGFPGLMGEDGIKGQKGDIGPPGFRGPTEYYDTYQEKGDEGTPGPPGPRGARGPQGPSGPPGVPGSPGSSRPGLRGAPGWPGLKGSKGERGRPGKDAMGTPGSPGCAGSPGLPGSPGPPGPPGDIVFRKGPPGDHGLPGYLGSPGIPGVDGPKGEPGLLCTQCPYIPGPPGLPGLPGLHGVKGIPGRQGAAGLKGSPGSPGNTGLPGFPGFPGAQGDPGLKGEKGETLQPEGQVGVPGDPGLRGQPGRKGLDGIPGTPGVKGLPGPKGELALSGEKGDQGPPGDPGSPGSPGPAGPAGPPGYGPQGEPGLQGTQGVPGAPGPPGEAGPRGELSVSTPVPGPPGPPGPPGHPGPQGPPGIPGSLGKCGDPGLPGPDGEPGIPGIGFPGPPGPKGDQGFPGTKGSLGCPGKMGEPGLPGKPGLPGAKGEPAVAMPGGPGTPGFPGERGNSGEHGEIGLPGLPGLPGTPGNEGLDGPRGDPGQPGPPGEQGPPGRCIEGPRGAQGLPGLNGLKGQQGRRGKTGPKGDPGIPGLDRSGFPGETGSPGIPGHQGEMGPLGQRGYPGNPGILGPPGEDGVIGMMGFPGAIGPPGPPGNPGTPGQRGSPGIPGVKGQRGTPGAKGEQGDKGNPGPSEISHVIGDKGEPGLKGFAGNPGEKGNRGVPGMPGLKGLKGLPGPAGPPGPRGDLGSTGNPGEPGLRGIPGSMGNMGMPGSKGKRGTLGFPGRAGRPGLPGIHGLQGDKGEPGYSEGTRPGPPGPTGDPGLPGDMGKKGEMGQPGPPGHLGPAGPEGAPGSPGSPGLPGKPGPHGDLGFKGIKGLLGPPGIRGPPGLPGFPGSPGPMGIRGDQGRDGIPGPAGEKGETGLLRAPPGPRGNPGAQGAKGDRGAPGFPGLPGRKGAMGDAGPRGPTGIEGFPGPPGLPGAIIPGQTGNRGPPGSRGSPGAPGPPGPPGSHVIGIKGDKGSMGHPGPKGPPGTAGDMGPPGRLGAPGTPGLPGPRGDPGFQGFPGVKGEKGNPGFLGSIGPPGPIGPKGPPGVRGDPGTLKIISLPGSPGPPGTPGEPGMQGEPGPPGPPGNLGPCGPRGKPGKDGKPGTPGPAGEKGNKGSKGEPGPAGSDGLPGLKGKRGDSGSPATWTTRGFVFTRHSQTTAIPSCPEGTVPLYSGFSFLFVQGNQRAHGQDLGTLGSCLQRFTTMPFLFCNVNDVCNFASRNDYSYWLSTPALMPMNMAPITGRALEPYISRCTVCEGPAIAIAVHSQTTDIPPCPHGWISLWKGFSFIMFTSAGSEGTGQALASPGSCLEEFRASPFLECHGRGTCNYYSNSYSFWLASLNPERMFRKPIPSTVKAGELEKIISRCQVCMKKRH

This is an account of results in patent publication US20030144481A1.

Assay [1] addresses eIF4E in C-PAE cell lysate (bovine) (UniProt Q9N0T5). The assay is described as follows: 7-methyl-GTP-Sepharose pull-down from C-PAE lysates after T3 or Tumstatin-45-132 treatment, immunoblot. Background: A western blot detects proteins with antibodies after separation by electrophoresis.
The target in assay [2] is integrin β1 subunit on HUVEC cells (human) (UniProt P05556). The assay is described as follows: cell attachment assay (HUVEC or C-PAE) with blocking antibodies.

In the case of “4E-BP1 in C-PAE cell lysate (from UniProt Q0P5A7 2-118)”, in assay [1], the binding entry was “binds”.

Take “Tumstatin-45-132 (E. coli-expressed) (from UniProt Q01955 1471-1558) (ligand)”: the binding result in assay [2] is “binds”.
